# Assay results: PubChem BioAssay AID298 (DTP/NCI, 2004)
# The list shows only some results of the screen, not a fair sample: it is rich in T/C values a quarter to a half above the control, in often repeated tests (any T/C) and in doses without a T/C. Further doses and runs are listed elsewhere. T/C: endpoint of the treated group in % of that of the vehicle group. Schedules are NCI's codes, taken here to give the interval after Q, in days (D) or hours (H), and the number of doses after X. Some T/C values are followed by the survivors on the day toxicity was checked, most often the fifth; without a count, all were alive then. Some doses have a count of surviving animals in place of a T/C: the source files T/C as zero there, which appears to mark a toxic dose or a test without result, not a measured value. Survivors were counted at the toxicity check, usually on the fifth day, unless a day is given; later deaths do not show.
# System: MX-1 breast xenograft, intrarenal, nude mice, tumor weight
# Assay: NCI In Vivo Anticancer Drug Screen. Data for tumor model Human Mammary Carcinoma MX-1 Xenograft (intrarenal inoculation) in NU/NU BALB/C (nude) mice
# Conditions: T/C endpoint: mean tumor weight change, higher T/C = larger tumour; for T/C: evaluated on day 11
# How it was run: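 Efficacy in vivo: tumor measurement or survival of treated animals divided by that of vehicle-dosed controls.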
# [1] = dose: 400.0 mg/kg/injection, schedule: Q04DX003 (ip), vehicle: other
# [2] = dose: 300.0 mg/kg/injection, schedule: Q04DX003 (sc), vehicle: saline with Tween-80
# [3] = dose: 600.0 mg/kg/injection, schedule: Q04DX003 (sc), vehicle: saline with Tween-80
# [4] = dose: 200.0 mg/kg/injection, schedule: Q04DX003 (ip), vehicle: saline with Tween-80
# [5] = dose: 400.0 mg/kg/injection, schedule: Q04DX003 (ip), vehicle: saline with Tween-80
smiles,measurement,setting,value
C[CH2][Sn]([Cl])([CH2]C)[c]1cc[c]([Sn]([Cl])([CH2]C)[CH2]C)cc1,survivor count,"dose: 2.0 mg/kg/injection, schedule: Q04DX003 (ip), vehicle: Klucel (hydroxypropylcellulose) (HPC)",0 of 6 on day 11
NC(Cc1ccccc1)C(=O)OCN1C(=O)C2C3C=CC(C2C1=O)C1C2C(=O)N(COC(=O)C(N)Cc4ccccc4)C(=O)C2C31 (stereo unspecified),survivor count,"dose: 128.6 mg/kg/injection, schedule: Q01DX009 (ip), vehicle: water",1 of 6 on day 11
same,survivor count,[1],1 of 6 on day 11
CC1c2ccccc2CC(CCN(C)C)c2ccccc21 (stereo unspecified),survivor count,"dose: 75.0 mg/kg/injection, schedule: Q04DX003 (sc), vehicle: saline with Tween-80",2 of 6 on day 11
same,survivor count,"dose: 150.0 mg/kg/injection, schedule: Q04DX003 (sc), vehicle: saline with Tween-80",0 of 6 on day 11
same,survivor count,[2],0 of 6 on day 11
same,survivor count,[3],0 of 6 on day 11
[Cl][Pt+2][Cl].[NH-]C1CCC1.[NH2-],survivor count,"dose: 25.0 mg/kg/injection, schedule: Q04DX003 (sc), vehicle: saline",0 of 6 on day 11
same,survivor count,"dose: 50.0 mg/kg/injection, schedule: Q04DX003 (sc), vehicle: saline",0 of 6 on day 11
CCN(CC)CCC(=O)OC(C(=O)O[C@H]1C[C@@]2(O)C(OC(=O)c3ccccc3)C3C4(OC(C)=O)COC4C[C@H](O)[C@@]3(C)C(=O)[C@H](OC(C)=O)C(=C1C)C2(C)C)C(NC(=O)c1ccccc1)c1ccccc1 (stereo partly specified),survivor count,"dose: 36.0 mg/kg/injection, schedule: Q01DX009 (ip), vehicle: water",0 of 5 on day 11
COC(=Nc1ccccc1)SSC(C)C,survivor count,"dose: 1200.0 mg/kg/injection, schedule: Q04DX003 (sc), vehicle: saline with Tween-80",1 of 6 on day 11
same,survivor count,"dose: 2400.0 mg/kg/injection, schedule: Q04DX003 (sc), vehicle: saline with Tween-80",0 of 6 on day 11
COc1cc2c(cc1OC)-c1c3c(cc4c1[C@@H](C2)N(C)CC4)OCO3,survivor count,"dose: 300.0 mg/kg/injection, schedule: Q04DX003 (ip), vehicle: distilled water + alcohol",2 of 6 on day 11
CC1(O)C=CC(=O)C=C1,survivor count,"dose: 100.0 mg/kg/injection, schedule: Q04DX003 (ip), vehicle: water",2 of 6 on day 11
same,survivor count,"dose: 200.0 mg/kg/injection, schedule: Q04DX003 (ip), vehicle: water",0 of 6 on day 11
O=C1N[C@H]2[C@H](CS[C@H]2CCCCC(=O)N(CCP(c2ccccc2)c2ccccc2)CCP(c2ccccc2)c2ccccc2)N1,T/C,"dose: 300.0 mg/kg/injection, schedule: Q04DX003 (sc), vehicle: Klucel (hydroxypropylcellulose) (HPC)",146 % of control
C/C(=N\NC(=S)N1CCN(c2ccccn2)CC1)c1ccccn1,T/C,"dose: 37.5 mg/kg/injection, schedule: Q04DX003 (sc), vehicle: water",135 % of control
same,survivor count,"dose: 150.0 mg/kg/injection, schedule: Q04DX003 (sc), vehicle: water",3 of 6 on day 11
same,survivor count,"dose: 300.0 mg/kg/injection, schedule: Q04DX003 (sc), vehicle: water",0 of 6 on day 11
O=C1C=CC(=CC=C2C=CN(CCCCCCCCCCCO)C=C2)C=C1,T/C,"dose: 50.0 mg/kg/injection, schedule: Q04DX003 (ip), vehicle: saline with Tween-80",144 % of control [4 of 6 alive on day 11]
same,survivor count,[4],0 of 6 on day 11
same,survivor count,[5],0 of 6 on day 11
CC(=O)/C(=C\c1ccc(/C=C(\C(C)=O)C(=O)CCN(C)C)cc1)C(=O)CCN(C)C,T/C,[5],126 % of control
same,T/C,"dose: 800.0 mg/kg/injection, schedule: Q04DX003 (ip), vehicle: saline with Tween-80",127 % of control
COC1C(CO)OC(n2cnc3c(=S)nc(N)[nH]c32)C1O (stereo unspecified),survivor count,"dose: 600.0 mg/kg/injection, schedule: Q04DX003 (sc), vehicle: Klucel (hydroxypropylcellulose) (HPC)",2 of 6 on day 11
same,survivor count,"dose: 1200.0 mg/kg/injection, schedule: Q04DX003 (sc), vehicle: Klucel (hydroxypropylcellulose) (HPC)",0 of 6 on day 11
CN=S(=O)(OCCCCCOS(=O)(=NC)c1ccc(C)cc1)c1ccc(C)cc1 (stereo unspecified),survivor count,[2],2 of 6 on day 11
same,survivor count,[3],0 of 6 on day 11
COc1ccc2c(c1)CCn1c(C)c(COC(=O)NC(C)C)c(COC(=O)NC(C)C)c1-2,survivor count,"dose: 150.0 mg/kg/injection, schedule: Q04DX003 (ip), vehicle: distilled water + Tween-80",1 of 6 on day 11
same,survivor count,"dose: 300.0 mg/kg/injection, schedule: Q04DX003 (ip), vehicle: distilled water + Tween-80",0 of 6 on day 11
same,survivor count,"dose: 600.0 mg/kg/injection, schedule: Q04DX003 (ip), vehicle: distilled water + Tween-80",0 of 6 on day 11
CC(=O)OCC1OC([S-])C(OC(C)=O)C(OC(C)=O)C1OC(C)=O.CC[PH+](CC)CC.CC[PH+](CC)CC.[Au].[Au] (stereo unspecified),T/C,"dose: 6.25 mg/kg/injection, schedule: Q04DX003 (ip), vehicle: Klucel (hydroxypropylcellulose) (HPC)",125 % of control
same,survivor count,"dose: 25.0 mg/kg/injection, schedule: Q04DX003 (ip), vehicle: Klucel (hydroxypropylcellulose) (HPC)",0 of 6 on day 11
C=CCCC(=O)CCCC(=O)O[C@@H]1[C@@H]2[C@H](CC1(C)C)[C@H](O)[C@@]13O[C@@H]1[C@H](O)[C@@]1(CO1)[C@@]23C,T/C,"dose: 50.0 micrograms/kg/injection, schedule: Q04DX003 (ip), vehicle: Klucel (hydroxypropylcellulose) (HPC)",126 % of control
CNC(=O)Oc1ccc(S(=O)(=O)c2ccc(OC(=O)NC)cc2)cc1,T/C,"dose: 75.0 mg/kg/injection, schedule: Q04DX003 (ip), vehicle: saline with Tween-80",131 % of control
C=C/C(C)=C/[C@H](C)C(=O)C[C@H](O)CC1CC(=O)NC(=O)C1,T/C,"dose: 2400.0 mg/kg/injection, schedule: Q04DX003 (sc), vehicle: water",132 % of control [5 of 6 alive on day 11]
CC(=O)O[C@H]1C(=O)[C@@]2(C)C(C(OC(=O)c3ccccc3)[C@]3(O)C[C@H](OC(=O)C(OC(=O)CN(C)C)C(NC(=O)c4ccccc4)c4ccccc4)C(C)=C1C3(C)C)C1(OC(C)=O)COC1C[C@@H]2O (stereo partly specified),survivor count,"dose: 30.0 mg/kg/injection, schedule: Q01DX009 (ip), vehicle: water",1 of 6 on day 11
CCc1nc(N)nc(N)c1-c1ccc(Cl)c(N=[N+]=[N-])c1,survivor count,"dose: 134.0 mg/kg/injection, schedule: Q04DX003 (ip), vehicle: water",0 of 6 on day 11
same,survivor count,"dose: 268.0 mg/kg/injection, schedule: Q04DX003 (ip), vehicle: water",0 of 6 on day 11
same,survivor count,"dose: 536.0 mg/kg/injection, schedule: Q04DX003 (ip), vehicle: water",0 of 6 on day 11
N/C(=N\O)c1cn(C2OC(CO)C(O)C2O)c2ncnc(N)c12 (stereo unspecified),survivor count,"dose: 20.0 mg/kg/injection, schedule: Q04DX003 (sc), vehicle: Klucel (hydroxypropylcellulose) (HPC)",1 of 6 on day 11
same,survivor count,"dose: 40.0 mg/kg/injection, schedule: Q04DX003 (sc), vehicle: Klucel (hydroxypropylcellulose) (HPC)",0 of 6 on day 11
Cc1cccc(OCC(O)CN2CC2)c1 (stereo unspecified),survivor count,[4],2 of 6 on day 11
same,survivor count,[5],0 of 6 on day 11
O=C(Nc1cc(Cl)ccc1C(=O)O)c1cccc(C[n+]2ccccc2)c1,survivor count,"dose: 1200.0 mg/kg/injection, schedule: Q04DX003 (ip), vehicle: saline with Tween-80",0 of 6 on day 11
CC[C@@H](C)[C@H]([C@H](CC(=O)N1CCC[C@@H]1[C@@H](OC)[C@H](C)C(=O)N[C@H](Cc1ccccc1)c1nccs1)OC)N(C)C(=O)[C@H](NC(=O)[C@@H](C(C)C)N(C)C)C(C)C,T/C,"dose: 13.0 micrograms/kg/injection, schedule: Q04DX003 (ip), vehicle: saline + alcohol",137 % of control
same,survivor count,"dose: 26.0 micrograms/kg/injection, schedule: Q04DX003 (ip), vehicle: saline + alcohol",1 of 6 on day 11
same,survivor count,"dose: 52.0 micrograms/kg/injection, schedule: Q04DX003 (ip), vehicle: saline + alcohol",0 of 6 on day 11
CC(=O)Nc1cscc1NC(C)=O,T/C,[3],135 % of control
O=C(NO)c1ccccc1,survivor count,"dose: 800.0 mg/kg/injection, schedule: Q01DX010 (sc), vehicle: Klucel (hydroxypropylcellulose) (HPC)",0 of 3 on day 11
Cc1c(O)/c(=C\O)c2nc3c(=O)ccc(C(=O)NCCN(C)C)c3[nH]c2c1=O,survivor count,[1],2 of 6 on day 11
